Where a protein sequence is shown, tags need not be part of it.
Biological target: T1, Bst DNA polymerase I large fragment (Geobacillus stearothermophilus) (UniProt E1C9K5)
T1 sequence (looked up): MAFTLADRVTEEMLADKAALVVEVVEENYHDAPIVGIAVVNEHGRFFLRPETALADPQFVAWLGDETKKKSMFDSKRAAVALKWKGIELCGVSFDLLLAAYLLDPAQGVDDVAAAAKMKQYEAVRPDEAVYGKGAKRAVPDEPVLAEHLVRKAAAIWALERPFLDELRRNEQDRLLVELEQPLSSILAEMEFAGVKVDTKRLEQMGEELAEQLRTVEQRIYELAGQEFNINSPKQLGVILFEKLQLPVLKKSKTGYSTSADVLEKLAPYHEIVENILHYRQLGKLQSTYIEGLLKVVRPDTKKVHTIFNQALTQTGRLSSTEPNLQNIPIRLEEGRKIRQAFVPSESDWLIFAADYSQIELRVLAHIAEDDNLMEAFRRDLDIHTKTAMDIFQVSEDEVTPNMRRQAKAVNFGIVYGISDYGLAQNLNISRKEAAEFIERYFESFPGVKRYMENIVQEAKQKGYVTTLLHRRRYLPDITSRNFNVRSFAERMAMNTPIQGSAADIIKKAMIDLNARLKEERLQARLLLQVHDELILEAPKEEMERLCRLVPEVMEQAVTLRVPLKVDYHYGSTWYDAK
Test: X-ray crystallography
Settings: post-translocated binary complex, 20 mM MgCl2 in annealing buffer, strand 1 (primer) DNA, P/T annealed in 50 mM Tris-Cl pH 7.5, 150 mM NaCl, 1 mM EDTA, 10 mM BME + 20 mM MgCl2, polymerase + P/T + TTP 30 min at 37 C before crystallization, recombinant protein, residues 3-580, protein details: tagless, synthetic backbone, letters put together from the description

Row | Sequence | binding result (1.91 A, strand 2 (template) entirely TNA (alpha-L-threofuranosyl, 3'-2' linked)) | binding result (1.62 A, strand 2 (template) entirely FANA (2'-deoxy-2'-fluoro-arabino), U in place of T)
1 | GCGATCACGTT / GACGTACGTGATCGCA [DNA/TNA primer-template, primer extended by one dT] | binds | 
2 | GCGATCACGTT / GACGUACGUGAUCGCA [DNA/FANA primer-template, primer extended by one dT] |  | binds

— article PMC6649750
